Experiment: Sulfate quantification in real water samples by fluorescence titration with the fluorophore
Conditions: for Found value (overall sulfate concentration in the commercial bottle): Commercial mineral water sample
Procedure: For the sulfate anion quantification of real samples, a 5µM test sample aqueous solution of sulfate was prepared from commercial MgSO4 and titrated (n = 3) by the successive addition of small volumes (in the order of microliters) of stock solution of guanylated fluorophore (A) of 1 mM in the quartz cuvette. A similar procedure was carried out for the titration of commercial mineral water samples. These samples of 5.5 and 7.5 µM sulfate anion concentration were prepared by dilutions of commercial mineral water, with labelling sulfate values of 1.20 mM (115 mg/L), in milli-Q water.
Guanylated fluorophore (A) was tested as a sulfate sensor in water samples, with three real sulfate-containing aqueous samples: a) test sample with 5 µM sulfate anion (prepared in the lab from commercial MgSO4), b) two different commercial mineral water samples (5.5 and 7.5 µM respectively) prepared by dilutions in milli-Q water.
Titration was performed by successively adding to 3 mL of an aqueous sample comprising sulfate anions a plurality of equal volumes (3 µL) of a solution of guanylated fluorophore of a known concentration (of 1 mM), gradually increasing the concentration of the guanylated fluorophore in the test sample from 0 to 12 µM. The fluorescence spectrum of the resulting solution after each addition was measured with an excitation wavelength of 272 nm in the range of 300 to 500 nm. For each spectrum the value of fluorescence (F) at its maximum (at 370 nm) was taken. Each F value was divided by the fluorescence value in absence of the guanylated fluorophore (F0) and multiplied by 100 to obtain the % of fluorescence increase in the presence of the guanylated fluorophore ((F/F0)*100). The % fluorescence increase was plotted against the corresponding concentration of the guanylated fluorophore of the resulting solution after each addition of guanylated fluorophore to the sulfate containing aqueous sample (figure 6c). […] The inflection point corresponds to the point wherein the concentration ratio of guanylated fluorophore to sulfate is 1, and therefore the concentration value of the sulfate concentration of the measured sample could be determined.

With CC(C)NC(=Nc1ccc2c(c1)Cc1ccccc1-2)NC(C)C [guanylated fluorophore (A), 2-(9H-fluoren-2-yl)-1,3-diisopropylguanidine] the “Found value (overall sulfate concentration in the commercial bottle)” value (labeling value 1.20 mM) was 1.26 ± 0.5 mM, the “Found value (overall sulfate concentration in the commercial bottle)” value (real value 115 mg/L) was 121 mg/L and the “Found value (sulfate concentration)” value (Test sample, real value 5 µM, prepared from MgSO4, n = 3) was 5.07 ± 0.2 µM. The “Found value (sulfate concentration)” value (diluted commercial mineral water sample, 5.5 µM) was 5.61 ± 0.1, the “Found value (sulfate concentration)” value (diluted commercial mineral water sample, 7.5 µM) was 7.42 ± 0.2 and the “LOQ (Limit of quantitation)” value (ten times the standard deviation of the blank) was 0.34 µM. For the same compound, the “LOD (Limit of detection)” value (three times the standard deviation of the blank) was 0.10 µM.
